Data on 42 sequences can be found in the supplement of paper PMC7877785.

± gives the uncertainty stated by the source. The uncertainty is large for many entries.

The series can be described thus: self-splicing fitness, log relative to wild type (ln ratio); higher = more splicing; Tetrahymena group I intron in knt gene, E. coli kanamycin selection, DiMSum; sequences stand for … in CUCUCU…GGAGGGAAAAGUUAUCAGGCAUGCACCUGGUAGCUAGUCUUUAAACCAAUAGAUUGCAUCGGUUUAAAAGGCAAGACCGUCAAAUUGCGGGAAAGGGGUCAACAGCCGUUCAGUACCAAGUCUCAGGGGAAACUUUGAGAUGGCCUUGCAAAGGGUAUGGUAAUAAGCUGACGGACAUGGUCCUAACCACGCAGCCAAGUCCUAAGUCAACAGAUCUUCUGUUGAUAUGGAUGCAGUUCACAGACUAAAUGUCGGUCGGGGAAGAUGUAUUCUUCUCAUAAGAUAUAGUCGGACCUCUCCUUAAUGGGAGCUAGCGGAUGAAGUGAUGCAACACUGGAGCCGCUGGGAACUAAUUUGUAUGCGAAAGUAUAUUGAUUAGUUUUGGAGUACUCGUGGUCG
In a few lines:
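DiMSum derived fitness as the error-weighted combination of fold changes across replicates, kanamycin versus no kanamycin, normalised to wild type. E. coli BL21(DE3) held the library, which randomised all eight P1ex-region intron nucleotides within the knt kanamycin-resistance gene on pET-22b(+). Six replicate transformations grew overnight at 37°C or 30°C on LB agar with or without 25 μg/mL kanamycin, also containing 100 μg/mL carbenicillin, 50 μM IPTG and 0.2% rhamnose, and pooled colonies were amplicon-sequenced on an Illumina HiSeq 2500.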

As to CGGAAGCAAUAUUACGAGGC, the “self-splicing fitness (ln)” value was -2.78 ± 0.54 (30 °C) and -2.08 ± 0.79 (37 °C). Turning to ACAGAGCAAUAUUACGCAGC, the “self-splicing fitness (ln)” value (30 °C) was -4.66 ± 0.72. AUUGAGCAAUAUUACGGAAC: the “self-splicing fitness (ln)” value (37 °C) was -3.9 ± 0.59.

As for AUUCAGCAAUAUUACGCCUC, the “self-splicing fitness (ln)” value (30 °C) is -1.43 ± 0.15 and the “self-splicing fitness (ln)” value (37 °C) was 0.286 ± 0.16. Take UCAUAGCAAUAUUACGCUUC: the “self-splicing fitness (ln)” value (30 °C) is -4.05 ± 0.51. Turning to CAGCAGCAAUAUUACGACGC, the “self-splicing fitness (ln)” value (30 °C) was -3.88 ± 1.1. Turning to UGUUAGCAAUAUUACGUUCA, the “self-splicing fitness (ln)” value is, setting by setting: (30 °C) 0.071 ± 0.12; (37 °C) -0.114 ± 0.14. Turning to GUAGAGCAAUAUUACGGCAC, the “self-splicing fitness (ln)” value (37 °C) was -0.267 ± 0.73. For the sequence CCCGAGCAAUAUUACGGGAC, the “self-splicing fitness (ln)” value runs as follows: (30 °C) -3.05 ± 0.18; (37 °C) -1.89 ± 0.19. In the case of UUUCAGCAAUAUUACGAACC, the “self-splicing fitness (ln)” value (30 °C) was -2.37 ± 0.64. With GUCGAGCAAUAUUACGGACC, the “self-splicing fitness (ln)” value is -3.4 ± 0.82 (30 °C) and -0.778 ± 1.4 (37 °C). As for UAGUAGCAAUAUUACGUGGC, the “self-splicing fitness (ln)” value (30 °C) is -4.32 ± 0.52. Consider UAAGAGCAAUAUUACGCCAG, for which the “self-splicing fitness (ln)” value was -4.29 ± 1.1 (30 °C) and -2.28 ± 0.63 (37 °C). GUAGAGCAAUAUUACGCUGC: under “37 °C”, the “self-splicing fitness (ln)” value was -1.39 ± 1.2. In the case of AAGGAGCAAUAUUACGAGCU, the “self-splicing fitness (ln)” value (30 °C) was -4.04 ± 0.59. As to AGAGAGCAAUAUUACGACUG, where the note is “37 °C”, the “self-splicing fitness (ln)” value was -3.43 ± 1. UGGGAGCAAUAUUACGAGGU: the “self-splicing fitness (ln)” value reads like this: (30 °C) -3.69 ± 0.74; (37 °C) -1.66 ± 0.81. On to GGGAAGCAAUAUUACGUUGC, for which the “self-splicing fitness (ln)” value (37 °C) was -3.22 ± 0.52.

On to AUACAGCAAUAUUACGUAGA, for which the “self-splicing fitness (ln)” value reads like this: (30 °C) -2.11 ± 0.085; (37 °C) -0.327 ± 0.076.

Take AGAGAGCAAUAUUACGCCCC: the “self-splicing fitness (ln)” value (37 °C) was -0.595 ± 1.4. Turning to UCCCAGCAAUAUUACGACUG, the “self-splicing fitness (ln)” value is, setting by setting: (30 °C) -3.58 ± 0.2; (37 °C) -3.16 ± 0.32. In the same order, the values of CGAGAGCAAUAUUACGUAUU are -2.53 ± 0.28 and -1.4 ± 0.28.

On to UUUGAGCAAUAUUACGUCAC, for which the “self-splicing fitness (ln)” value (30 °C) was -2.81 ± 0.62 and the “self-splicing fitness (ln)” value (37 °C) was -0.687 ± 0.53.

As to UAUGAGCAAUAUUACGCUCU, the “self-splicing fitness (ln)” value (37 °C) was -2.05 ± 0.52.

Consider CAUAAGCAAUAUUACGACUA, for which the “self-splicing fitness (ln)” value by setting is: (30 °C) -1.94 ± 0.095; (37 °C) -0.427 ± 0.078. In the same order, the values of UGGUAGCAAUAUUACGCCCC are -0.393 ± 0.73 and -0.595 ± 1. Taken in the same sequence, the figures for CGGGAGCAAUAUUACGUUUC were -3.92 ± 0.46 and -2.72 ± 0.62. Taken in the same sequence, the figures for GUACAGCAAUAUUACGUCAU were -1.7 ± 0.09 and -1.13 ± 0.11. Turning to GCGAAGCAAUAUUACGUUCG, the “self-splicing fitness (ln)” value was -4.25 ± 0.52 (30 °C) and -0.778 ± 0.82 (37 °C). In the same order, the values of AGCAAGCAAUAUUACGUCUU are -1.38 ± 0.068 and -0.234 ± 0.074. With AAAGAGCAAUAUUACGAAAA, the “self-splicing fitness (ln)” value was -3.5 ± 0.53 (30 °C) and -0.77 ± 0.4 (37 °C). As for ACAAAGCAAUAUUACGCGGG, the “self-splicing fitness (ln)” value is, setting by setting: (30 °C) -2.47 ± 0.09; (37 °C) -1.01 ± 0.09. In the same order, the values of UCGGAGCAAUAUUACGCCAU are -1.78 ± 0.84 and -1.09 ± 0.92. On to UUCGAGCAAUAUUACGACGC, for which, under “30 °C”, the “self-splicing fitness (ln)” value is -4.29 ± 1.1. As for GAGGAGCAAUAUUACGAAGU, the “self-splicing fitness (ln)” value (30 °C) is -3.84 ± 0.52 and the “self-splicing fitness (ln)” value (37 °C) is -1.76 ± 0.6. As for GGGUAGCAAUAUUACGUCCU, the “self-splicing fitness (ln)” value (30 °C) is -2.93 ± 0.63 and the “self-splicing fitness (ln)” value (37 °C) is -3.25 ± 1. In the same order, the values of AAAUAGCAAUAUUACGAUGG are -2.87 ± 0.17 and -1.97 ± 0.2. Consider GUAAAGCAAUAUUACGACAC, for which the “self-splicing fitness (ln)” value by setting is: (30 °C) 0.603 ± 0.098; (37 °C) 0.696 ± 0.12. For the sequence GGACAGCAAUAUUACGUUAU, the “self-splicing fitness (ln)” value was -0.282 ± 0.046 (30 °C) and 0.102 ± 0.066 (37 °C).

In the case of CAGCAGCAAUAUUACGAAGC, the “self-splicing fitness (ln)” value (37 °C) was -2.54 ± 1.1. The same measure, in the same setting: with GCAGAGCAAUAUUACGAGGA the figure was -1.79 ± 0.82. Regarding ACGGAGCAAUAUUACGUACC, the “self-splicing fitness (ln)” value runs as follows: (30 °C) -4.72 ± 1; (37 °C) -0.522 ± 0.72.
